Source: patent US20090280488A1
Results are given in words; binding and its absence hold for the method and conditions named. In cells and extracts the contact can be indirect. Some results given as binding are weak or reduced against the parent protein; the word gives no strength. Where a sequence is shown, tags or fusion partners need not be part of it.

Protein sequences, listed by entry. Tags and fused reporters are not part of them. Lines headed by an entry give the natural chain unless they say otherwise; changes in a name come on top. Chains listed by the source or under a name are the forms on record and can include a tag or linker.
mutant huntingtin (Htt111Q) (P42858, form named): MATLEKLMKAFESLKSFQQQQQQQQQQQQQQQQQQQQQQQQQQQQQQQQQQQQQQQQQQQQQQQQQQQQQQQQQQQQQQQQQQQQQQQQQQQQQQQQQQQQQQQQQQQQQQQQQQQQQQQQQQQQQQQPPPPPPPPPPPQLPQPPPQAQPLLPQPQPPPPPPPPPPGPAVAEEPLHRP
mutant ataxin-1 (AT1-82Q) (P54253, form named): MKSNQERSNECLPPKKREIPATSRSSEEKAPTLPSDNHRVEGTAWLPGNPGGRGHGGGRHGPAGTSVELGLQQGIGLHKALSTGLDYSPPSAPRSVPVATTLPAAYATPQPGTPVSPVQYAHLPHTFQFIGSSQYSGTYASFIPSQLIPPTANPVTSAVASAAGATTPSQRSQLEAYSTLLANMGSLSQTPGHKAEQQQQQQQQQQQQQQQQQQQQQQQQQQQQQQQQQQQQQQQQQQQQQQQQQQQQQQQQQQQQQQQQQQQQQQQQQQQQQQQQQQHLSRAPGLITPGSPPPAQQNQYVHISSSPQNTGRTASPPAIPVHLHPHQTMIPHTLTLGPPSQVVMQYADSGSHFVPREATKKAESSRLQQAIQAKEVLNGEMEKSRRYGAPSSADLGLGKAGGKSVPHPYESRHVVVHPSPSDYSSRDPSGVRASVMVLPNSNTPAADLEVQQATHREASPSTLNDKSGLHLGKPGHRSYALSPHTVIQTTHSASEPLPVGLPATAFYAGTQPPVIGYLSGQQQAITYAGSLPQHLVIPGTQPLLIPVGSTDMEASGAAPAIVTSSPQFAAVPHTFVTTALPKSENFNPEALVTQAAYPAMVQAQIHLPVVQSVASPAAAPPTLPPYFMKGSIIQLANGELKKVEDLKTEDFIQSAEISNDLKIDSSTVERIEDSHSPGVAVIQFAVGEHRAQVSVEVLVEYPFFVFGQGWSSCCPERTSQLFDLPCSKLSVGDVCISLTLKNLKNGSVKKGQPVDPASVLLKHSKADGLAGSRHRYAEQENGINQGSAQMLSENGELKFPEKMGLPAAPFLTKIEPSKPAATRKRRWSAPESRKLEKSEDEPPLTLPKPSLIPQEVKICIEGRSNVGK

B1: HMGB2-EGFP protein (rat HMGB2 expressed from pEGFP-N1-HMGB2) (protein, not shown: large carriers)
chain: MGKGDPNKPRGKMSSYAFFVQTCREEHKKKHPDSSVNFAEFSKKCSERWKTMSAKEKSKFEDLAKSDKARYDREMKNYVPPKGDKKGKKKDPNAPKRPPSAFFLFCSEHRPKIKSEHPGLSIGDTAKKLGEMWSEQSAKDKQPYEQKAAKLKEKYEKDIAAYRAKGKSEVGKKGPGRPTGSKKKNEPEDEEEEEEEEDDEDEEEEDEDEE
B2: GST-HMGB2 fusion protein (rat HMGB2 from pGEX-3X-HMGB2) (protein, not shown: a dimerising Fc or GST)
chain: MGKGDPNKPRGKMSSYAFFVQTCREEHKKKHPDSSVNFAEFSKKCSERWKTMSAKEKSKFEDLAKSDKARYDREMKNYVPPKGDKKGKKKDPNAPKRPPSAFFLFCSEHRPKIKSEHPGLSIGDTAKKLGEMWSEQSAKDKQPYEQKAAKLKEKYEKDIAAYRAKGKSEVGKKGPGRPTGSKKKNEPEDEEEEEEEEDDEDEEEEDEDEE

Columns and labels:
[1] = biological target: mutant huntingtin (Htt111Q) (human) (UniProt P42858); test: co-immunoprecipitation from HeLa cell lysate with anti-HMGB or anti-EGFP antibody, blot with CAG53b
[2] = biological target: mutant ataxin-1 (AT1-82Q) (human) (UniProt P54253); test: as above
[3] = biological target: mutant huntingtin (Htt111Q) (human) (UniProt P42858); test: GST pull-down from HeLa cell lysate, blot with CAG53b
[4] = biological target: mutant ataxin-1 (AT1-82Q) (human) (UniProt P54253); test: as above

Row | Binder | binding [1] | binding [2] | binding [3] | binding [4]
1 | B1 | binds | binds |  | 
2 | B2 |  |  | binds | binds
